In the supplement of paper PMC12595434, “Development of retinoid nuclear receptor pathway antagonists through targeting aldehyde dehydrogenase 1A3” (iScience, 2025):
The other results are listed elsewhere or left out. Single values of this set are uncertain.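 Tm was set to 64 °C where no melting was found, and many curves are irregular.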

Amino acid sequences for entries named in this document (tags omitted). A change or cut given only in a name is not applied to a line headed by its entry.
UniProt Q5ST30: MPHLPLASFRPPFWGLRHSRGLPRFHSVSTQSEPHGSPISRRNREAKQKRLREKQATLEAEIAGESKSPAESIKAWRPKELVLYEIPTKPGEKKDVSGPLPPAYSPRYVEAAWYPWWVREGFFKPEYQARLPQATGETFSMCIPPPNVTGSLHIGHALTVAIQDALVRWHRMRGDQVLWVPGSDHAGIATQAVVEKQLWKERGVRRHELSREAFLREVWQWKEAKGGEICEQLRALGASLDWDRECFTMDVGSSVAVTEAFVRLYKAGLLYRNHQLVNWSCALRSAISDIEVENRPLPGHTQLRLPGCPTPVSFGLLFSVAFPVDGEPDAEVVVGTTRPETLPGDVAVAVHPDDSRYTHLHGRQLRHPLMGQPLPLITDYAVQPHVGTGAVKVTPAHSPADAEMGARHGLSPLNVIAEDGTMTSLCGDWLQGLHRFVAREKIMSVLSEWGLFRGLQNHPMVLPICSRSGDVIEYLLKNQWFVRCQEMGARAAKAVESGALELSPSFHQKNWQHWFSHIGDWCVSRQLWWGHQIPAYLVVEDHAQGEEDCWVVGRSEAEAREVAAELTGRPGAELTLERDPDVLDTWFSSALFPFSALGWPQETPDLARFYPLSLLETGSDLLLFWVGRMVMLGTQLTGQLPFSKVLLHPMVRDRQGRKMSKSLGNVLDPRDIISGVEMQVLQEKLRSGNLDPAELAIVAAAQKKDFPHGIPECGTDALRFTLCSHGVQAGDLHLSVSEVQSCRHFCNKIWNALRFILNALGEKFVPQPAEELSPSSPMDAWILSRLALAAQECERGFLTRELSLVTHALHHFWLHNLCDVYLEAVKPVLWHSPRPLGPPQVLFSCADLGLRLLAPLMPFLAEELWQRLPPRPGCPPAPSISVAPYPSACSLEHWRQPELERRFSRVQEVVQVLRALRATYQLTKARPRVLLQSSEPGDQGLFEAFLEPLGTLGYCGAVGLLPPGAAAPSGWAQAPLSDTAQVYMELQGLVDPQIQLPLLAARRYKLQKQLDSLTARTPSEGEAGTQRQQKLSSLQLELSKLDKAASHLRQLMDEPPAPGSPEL
UniProt Q58WW2: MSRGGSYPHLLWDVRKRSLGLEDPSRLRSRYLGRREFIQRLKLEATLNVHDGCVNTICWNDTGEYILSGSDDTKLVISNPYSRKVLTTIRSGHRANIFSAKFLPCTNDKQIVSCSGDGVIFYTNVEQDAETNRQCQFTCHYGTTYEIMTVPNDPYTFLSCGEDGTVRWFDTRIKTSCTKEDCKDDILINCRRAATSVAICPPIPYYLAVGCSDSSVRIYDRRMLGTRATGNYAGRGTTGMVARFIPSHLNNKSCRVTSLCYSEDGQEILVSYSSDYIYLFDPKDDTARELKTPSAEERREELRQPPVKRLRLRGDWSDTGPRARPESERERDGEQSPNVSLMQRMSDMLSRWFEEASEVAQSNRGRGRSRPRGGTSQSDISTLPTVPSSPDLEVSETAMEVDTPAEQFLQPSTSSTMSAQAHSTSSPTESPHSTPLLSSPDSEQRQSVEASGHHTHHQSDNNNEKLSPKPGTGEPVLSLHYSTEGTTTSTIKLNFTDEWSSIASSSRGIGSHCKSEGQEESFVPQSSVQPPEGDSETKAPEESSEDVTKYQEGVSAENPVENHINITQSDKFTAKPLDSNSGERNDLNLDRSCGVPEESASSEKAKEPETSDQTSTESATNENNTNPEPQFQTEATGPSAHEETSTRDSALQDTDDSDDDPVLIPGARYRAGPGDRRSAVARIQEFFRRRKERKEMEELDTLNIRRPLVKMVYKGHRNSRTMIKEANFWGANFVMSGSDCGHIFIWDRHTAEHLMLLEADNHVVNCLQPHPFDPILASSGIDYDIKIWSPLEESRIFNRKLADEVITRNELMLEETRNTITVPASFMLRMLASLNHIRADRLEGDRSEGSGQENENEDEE
UniProt Q659C4: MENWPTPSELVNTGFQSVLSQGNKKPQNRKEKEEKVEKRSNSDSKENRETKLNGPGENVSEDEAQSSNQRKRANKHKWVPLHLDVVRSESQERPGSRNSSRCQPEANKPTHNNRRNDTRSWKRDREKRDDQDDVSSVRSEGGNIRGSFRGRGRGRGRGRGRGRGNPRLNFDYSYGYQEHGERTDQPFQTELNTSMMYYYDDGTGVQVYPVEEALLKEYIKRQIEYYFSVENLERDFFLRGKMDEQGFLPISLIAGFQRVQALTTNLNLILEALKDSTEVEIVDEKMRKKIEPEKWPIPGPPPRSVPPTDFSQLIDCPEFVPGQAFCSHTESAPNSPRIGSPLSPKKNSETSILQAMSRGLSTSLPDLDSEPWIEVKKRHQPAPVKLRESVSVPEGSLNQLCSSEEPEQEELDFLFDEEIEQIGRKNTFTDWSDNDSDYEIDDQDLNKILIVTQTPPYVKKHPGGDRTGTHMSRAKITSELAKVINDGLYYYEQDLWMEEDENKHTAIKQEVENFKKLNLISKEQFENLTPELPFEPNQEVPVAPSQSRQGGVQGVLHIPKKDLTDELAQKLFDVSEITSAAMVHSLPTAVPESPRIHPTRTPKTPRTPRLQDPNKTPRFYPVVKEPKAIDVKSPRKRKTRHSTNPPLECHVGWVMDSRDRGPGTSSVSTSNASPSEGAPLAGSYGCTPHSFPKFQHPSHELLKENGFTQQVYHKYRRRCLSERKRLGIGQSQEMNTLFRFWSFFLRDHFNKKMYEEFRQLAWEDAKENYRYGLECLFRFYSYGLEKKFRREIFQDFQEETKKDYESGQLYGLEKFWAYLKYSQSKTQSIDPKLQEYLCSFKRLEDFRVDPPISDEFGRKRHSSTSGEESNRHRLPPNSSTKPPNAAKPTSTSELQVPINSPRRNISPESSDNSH
UniProt Q6NZY4: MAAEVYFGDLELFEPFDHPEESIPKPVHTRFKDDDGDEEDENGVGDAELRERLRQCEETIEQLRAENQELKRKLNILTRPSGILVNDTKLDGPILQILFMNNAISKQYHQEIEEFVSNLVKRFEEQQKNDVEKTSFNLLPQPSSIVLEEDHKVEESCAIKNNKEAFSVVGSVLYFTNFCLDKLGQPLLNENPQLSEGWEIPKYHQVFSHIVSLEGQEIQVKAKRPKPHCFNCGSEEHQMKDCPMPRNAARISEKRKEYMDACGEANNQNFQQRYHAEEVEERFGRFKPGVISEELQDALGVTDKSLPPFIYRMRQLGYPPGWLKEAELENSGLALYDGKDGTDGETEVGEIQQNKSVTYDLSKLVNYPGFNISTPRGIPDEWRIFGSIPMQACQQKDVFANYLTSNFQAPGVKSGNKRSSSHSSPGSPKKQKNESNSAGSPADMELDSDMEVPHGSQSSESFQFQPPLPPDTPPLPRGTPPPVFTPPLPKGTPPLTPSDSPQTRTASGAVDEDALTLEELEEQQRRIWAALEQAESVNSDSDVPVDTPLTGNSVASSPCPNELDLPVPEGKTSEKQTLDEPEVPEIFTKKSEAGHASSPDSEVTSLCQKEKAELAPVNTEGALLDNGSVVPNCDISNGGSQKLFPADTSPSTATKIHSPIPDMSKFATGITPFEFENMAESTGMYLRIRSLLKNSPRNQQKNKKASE
UniProt Q5T9S5: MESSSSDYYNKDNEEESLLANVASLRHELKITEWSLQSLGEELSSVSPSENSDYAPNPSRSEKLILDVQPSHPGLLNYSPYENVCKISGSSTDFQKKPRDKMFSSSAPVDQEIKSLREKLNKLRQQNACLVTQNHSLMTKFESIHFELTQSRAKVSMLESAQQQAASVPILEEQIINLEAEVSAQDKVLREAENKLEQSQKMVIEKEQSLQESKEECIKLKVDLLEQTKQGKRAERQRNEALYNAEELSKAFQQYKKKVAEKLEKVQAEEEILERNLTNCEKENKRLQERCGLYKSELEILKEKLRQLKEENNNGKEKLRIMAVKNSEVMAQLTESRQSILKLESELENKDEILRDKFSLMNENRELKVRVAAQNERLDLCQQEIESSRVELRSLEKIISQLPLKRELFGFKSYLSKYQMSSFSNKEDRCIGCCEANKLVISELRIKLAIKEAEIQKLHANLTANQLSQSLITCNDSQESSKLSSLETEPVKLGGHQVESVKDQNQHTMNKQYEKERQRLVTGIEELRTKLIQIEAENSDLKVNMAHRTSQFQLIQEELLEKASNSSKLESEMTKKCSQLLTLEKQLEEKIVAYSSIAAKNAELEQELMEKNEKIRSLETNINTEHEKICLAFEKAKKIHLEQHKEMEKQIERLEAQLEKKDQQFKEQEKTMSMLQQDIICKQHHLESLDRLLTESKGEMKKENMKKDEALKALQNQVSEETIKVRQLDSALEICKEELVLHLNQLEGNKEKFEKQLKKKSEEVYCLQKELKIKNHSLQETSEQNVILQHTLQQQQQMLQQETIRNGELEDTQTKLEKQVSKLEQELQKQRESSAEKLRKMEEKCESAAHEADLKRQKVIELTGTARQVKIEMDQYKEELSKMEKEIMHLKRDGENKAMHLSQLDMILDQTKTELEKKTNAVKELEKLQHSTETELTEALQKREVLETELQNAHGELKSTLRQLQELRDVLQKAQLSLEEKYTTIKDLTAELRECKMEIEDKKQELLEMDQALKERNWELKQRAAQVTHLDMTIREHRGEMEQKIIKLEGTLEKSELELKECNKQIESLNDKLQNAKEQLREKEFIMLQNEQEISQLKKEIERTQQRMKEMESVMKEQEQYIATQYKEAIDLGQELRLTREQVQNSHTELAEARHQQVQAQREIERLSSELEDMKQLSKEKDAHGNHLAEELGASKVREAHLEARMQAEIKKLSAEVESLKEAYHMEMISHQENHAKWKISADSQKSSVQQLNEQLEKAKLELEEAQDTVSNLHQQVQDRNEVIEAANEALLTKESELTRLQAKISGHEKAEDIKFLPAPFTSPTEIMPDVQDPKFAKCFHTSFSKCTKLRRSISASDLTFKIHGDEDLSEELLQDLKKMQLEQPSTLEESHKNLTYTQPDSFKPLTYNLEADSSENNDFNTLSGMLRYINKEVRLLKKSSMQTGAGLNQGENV
UniProt Q5GLZ8: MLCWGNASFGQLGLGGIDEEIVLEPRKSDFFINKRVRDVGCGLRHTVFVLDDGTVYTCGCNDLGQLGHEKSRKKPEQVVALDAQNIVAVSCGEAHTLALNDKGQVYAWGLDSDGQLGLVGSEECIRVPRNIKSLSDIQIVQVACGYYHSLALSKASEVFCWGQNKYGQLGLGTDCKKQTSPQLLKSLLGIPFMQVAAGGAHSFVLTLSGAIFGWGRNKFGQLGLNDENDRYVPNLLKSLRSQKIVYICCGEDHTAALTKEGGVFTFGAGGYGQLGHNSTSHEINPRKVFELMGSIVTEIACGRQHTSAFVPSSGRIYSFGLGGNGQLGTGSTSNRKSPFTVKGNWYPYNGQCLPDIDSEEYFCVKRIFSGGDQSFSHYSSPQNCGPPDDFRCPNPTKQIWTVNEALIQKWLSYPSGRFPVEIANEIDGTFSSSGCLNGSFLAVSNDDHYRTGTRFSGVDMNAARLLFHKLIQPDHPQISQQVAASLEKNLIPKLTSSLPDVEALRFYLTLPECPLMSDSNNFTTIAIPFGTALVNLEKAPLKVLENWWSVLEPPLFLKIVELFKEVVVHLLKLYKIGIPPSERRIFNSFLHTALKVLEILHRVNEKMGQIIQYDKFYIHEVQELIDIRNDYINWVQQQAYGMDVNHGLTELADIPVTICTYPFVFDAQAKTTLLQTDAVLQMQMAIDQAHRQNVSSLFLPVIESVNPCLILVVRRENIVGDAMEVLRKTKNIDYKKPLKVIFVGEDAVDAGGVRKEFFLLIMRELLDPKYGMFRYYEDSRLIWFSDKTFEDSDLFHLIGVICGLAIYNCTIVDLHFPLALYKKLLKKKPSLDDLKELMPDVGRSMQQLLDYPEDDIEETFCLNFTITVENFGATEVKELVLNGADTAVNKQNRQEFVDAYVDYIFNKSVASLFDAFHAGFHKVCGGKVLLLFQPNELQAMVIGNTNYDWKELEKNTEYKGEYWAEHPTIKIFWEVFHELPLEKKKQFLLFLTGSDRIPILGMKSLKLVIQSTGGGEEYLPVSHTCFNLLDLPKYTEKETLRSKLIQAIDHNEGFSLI
UniProt Q5SQN1: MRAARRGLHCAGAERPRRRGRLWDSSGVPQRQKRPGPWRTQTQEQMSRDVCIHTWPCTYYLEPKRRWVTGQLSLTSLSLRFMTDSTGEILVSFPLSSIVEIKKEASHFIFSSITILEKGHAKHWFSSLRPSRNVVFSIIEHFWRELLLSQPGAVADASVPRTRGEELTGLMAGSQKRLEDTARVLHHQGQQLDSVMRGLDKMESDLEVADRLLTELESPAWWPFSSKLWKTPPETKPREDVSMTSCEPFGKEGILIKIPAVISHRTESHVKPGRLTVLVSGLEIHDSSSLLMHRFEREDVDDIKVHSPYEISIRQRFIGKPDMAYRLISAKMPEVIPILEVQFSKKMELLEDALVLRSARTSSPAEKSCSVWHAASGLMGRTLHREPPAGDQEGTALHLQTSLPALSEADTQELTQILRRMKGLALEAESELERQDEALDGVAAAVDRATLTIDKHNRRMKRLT

Compound: CCc1cnccc1C(=O)Nc1cc2c(cc1F)NC(=O)CC2
Assay: melting temperature shift (DMSO Tm minus MBE1-treated Tm) in cellular thermal proteome profiling; higher = less thermal stabilization by MBE1 (negative = stabilized by MBE1)
Conditions: A375

## UBAP2 (UniProt Q5T6F2)
MBE1 concentration: 100 nM
  melting temperature shift: -1.23 °C
MBE1 concentration: 1 uM
  melting temperature shift: 0.122 °C

## UniProt Q6P6B7
MBE1 concentration: 100 nM
  melting temperature shift: 4.65 °C
MBE1 concentration: 1 uM
  melting temperature shift: 0.403 °C

## ACBD5 (UniProt Q5T8D3)
MBE1 concentration: 100 nM
  melting temperature shift: -1.06 °C
MBE1 concentration: 1 uM
  melting temperature shift: -0.558 °C

## WDR45B (UniProt Q5MNZ6)
MBE1 concentration: 100 nM
  melting temperature shift: -1.58 °C
MBE1 concentration: 1 uM
  melting temperature shift: -1.88 °C

## CIAPIN1 (UniProt Q6FI81)
MBE1 concentration: 100 nM
  melting temperature shift: 0.134 °C
MBE1 concentration: 1 uM
  melting temperature shift: 0.14 °C

## JMJD6 (UniProt Q6NYC1)
MBE1 concentration: 100 nM
  melting temperature shift: -0.79 °C
MBE1 concentration: 1 uM
  melting temperature shift: -0.729 °C

## ARHGAP17 (UniProt Q68EM7)
MBE1 concentration: 100 nM
  melting temperature shift: -0.08 °C
MBE1 concentration: 1 uM
  melting temperature shift: 0.16 °C

## VARS2 (UniProt Q5ST30)
MBE1 concentration: 100 nM
  melting temperature shift: 1.47 °C
MBE1 concentration: 1 uM
  melting temperature shift: 0.476 °C

## DCAF6 (UniProt Q58WW2)
MBE1 concentration: 100 nM
  melting temperature shift: -2.58 °C
MBE1 concentration: 1 uM
  melting temperature shift: -3.54 °C

## DOCK11 (UniProt Q5JSL3)
MBE1 concentration: 100 nM
  melting temperature shift: 0.775 °C
MBE1 concentration: 1 uM
  melting temperature shift: 0.385 °C

## CNNM4 (UniProt Q6P4Q7)
MBE1 concentration: 100 nM
  melting temperature shift: 1.15 °C
MBE1 concentration: 1 uM
  melting temperature shift: 0.694 °C

## WWC2 (UniProt Q6AWC2)
MBE1 concentration: 100 nM
  melting temperature shift: -2.61 °C
MBE1 concentration: 1 uM
  melting temperature shift: -0.214 °C

## UniProt Q5T200
MBE1 concentration: 100 nM
  melting temperature shift: -0.543 °C
MBE1 concentration: 1 uM
  melting temperature shift: -0.494 °C

## PIGG (UniProt Q5H8A4)
MBE1 concentration: 100 nM
  melting temperature shift: 0.134 °C
MBE1 concentration: 1 uM
  melting temperature shift: 1.1 °C

## LMBRD2 (UniProt Q68DH5)
MBE1 concentration: 100 nM
  melting temperature shift: -1.53 °C
MBE1 concentration: 1 uM
  melting temperature shift: -1.58 °C

## UniProt Q66GS9
MBE1 concentration: 100 nM
  melting temperature shift: 0.228 °C
MBE1 concentration: 1 uM
  melting temperature shift: 1.93 °C

## UniProt Q5THK1
MBE1 concentration: 100 nM
  melting temperature shift: -0.421 °C
MBE1 concentration: 1 uM
  melting temperature shift: 1.81 °C

## TTC27 (UniProt Q6P3X3)
MBE1 concentration: 100 nM
  melting temperature shift: -1 °C
MBE1 concentration: 1 uM
  melting temperature shift: -0.389 °C

## PPP1R18 (UniProt Q6NYC8)
MBE1 concentration: 100 nM
  melting temperature shift: 0.708 °C
MBE1 concentration: 1 uM
  melting temperature shift: 0.769 °C

## UniProt Q5SZL2
MBE1 concentration: 100 nM
  melting temperature shift: -1.8 °C
MBE1 concentration: 1 uM
  melting temperature shift: 3.09 °C

## TJAP1 (UniProt Q5JTD0)
MBE1 concentration: 100 nM
  melting temperature shift: 0.183 °C
MBE1 concentration: 1 uM
  melting temperature shift: 1.11 °C

## RWDD4 (UniProt Q6NW29)
MBE1 concentration: 100 nM
  melting temperature shift: -1.97 °C
MBE1 concentration: 1 uM
  melting temperature shift: -0.595 °C

## HAUS3 (UniProt Q68CZ6)
MBE1 concentration: 100 nM
  melting temperature shift: -0.612 °C
MBE1 concentration: 1 uM
  melting temperature shift: -0.428 °C

## TYW3 (UniProt Q6IPR3)
MBE1 concentration: 100 nM
  melting temperature shift: -0.733 °C
MBE1 concentration: 1 uM
  melting temperature shift: 0.796 °C

## NOMO2 (UniProt Q5JPE7)
MBE1 concentration: 100 nM
  melting temperature shift: 0.0671 °C
MBE1 concentration: 1 uM
  melting temperature shift: 1.19 °C

## UniProt Q659C4
MBE1 concentration: 100 nM
  melting temperature shift: -0.0122 °C
MBE1 concentration: 1 uM
  melting temperature shift: 0.891 °C

## RPL7L1 (UniProt Q6DKI1)
MBE1 concentration: 100 nM
  melting temperature shift: -0.545 °C
MBE1 concentration: 1 uM
  melting temperature shift: -0.102 °C

## UniProt Q69YH5
MBE1 concentration: 100 nM
  melting temperature shift: 0.452 °C
MBE1 concentration: 1 uM
  melting temperature shift: 0.537 °C

## OTUD7B (UniProt Q6GQQ9)
MBE1 concentration: 100 nM
  melting temperature shift: -0.273 °C
MBE1 concentration: 1 uM
  melting temperature shift: -0.24 °C

## PCID2 (UniProt Q5JVF3)
MBE1 concentration: 100 nM
  melting temperature shift: -0.856 °C
MBE1 concentration: 1 uM
  melting temperature shift: 0.118 °C

## ZCCHC8 (UniProt Q6NZY4)
MBE1 concentration: 100 nM
  melting temperature shift: -0.306 °C
MBE1 concentration: 1 uM
  melting temperature shift: 0.232 °C

## PPP4R3B (UniProt Q5MIZ7)
MBE1 concentration: 100 nM
  melting temperature shift: -0.165 °C
MBE1 concentration: 1 uM
  melting temperature shift: -0.118 °C

## C9ORF114 (UniProt Q5T280)
MBE1 concentration: 100 nM
  melting temperature shift: -0.858 °C
MBE1 concentration: 1 uM
  melting temperature shift: -0.414 °C

## CCDC18 (UniProt Q5T9S5)
MBE1 concentration: 100 nM
  melting temperature shift: 0.195 °C
MBE1 concentration: 1 uM
  melting temperature shift: 3.96 °C

## ELP2 (UniProt Q6IA86)
MBE1 concentration: 100 nM
  melting temperature shift: -0.238 °C
MBE1 concentration: 1 uM
  melting temperature shift: -0.316 °C

## PRPF38B (UniProt Q5VTL8)
MBE1 concentration: 100 nM
  melting temperature shift: 0.127 °C
MBE1 concentration: 1 uM
  melting temperature shift: -1.41 °C

## KIAA1217 (UniProt Q5T5P2)
MBE1 concentration: 100 nM
  melting temperature shift: -0.873 °C
MBE1 concentration: 1 uM
  melting temperature shift: -0.365 °C

## UniProt Q5VWG9
MBE1 concentration: 100 nM
  melting temperature shift: -0.254 °C
MBE1 concentration: 1 uM
  melting temperature shift: -0.0329 °C

## UniProt Q5JSJ4
MBE1 concentration: 100 nM
  melting temperature shift: -1.11 °C
MBE1 concentration: 1 uM
  melting temperature shift: -2.78 °C

## ANKRD54 (UniProt Q6NXT1)
MBE1 concentration: 100 nM
  melting temperature shift: -1.79 °C
MBE1 concentration: 1 uM
  melting temperature shift: 0.241 °C

## UniProt Q6P1K8
MBE1 concentration: 100 nM
  melting temperature shift: -1.01 °C
MBE1 concentration: 1 uM
  melting temperature shift: -0.461 °C

## TBCEL (UniProt Q5QJ74)
MBE1 concentration: 100 nM
  melting temperature shift: -0.376 °C
MBE1 concentration: 1 uM
  melting temperature shift: -0.838 °C

## KIAA1429 (UniProt Q69YN4)
MBE1 concentration: 100 nM
  melting temperature shift: -0.83 °C
MBE1 concentration: 1 uM
  melting temperature shift: -0.0961 °C

## HERC4 (UniProt Q5GLZ8)
MBE1 concentration: 100 nM
  melting temperature shift: 0.421 °C
MBE1 concentration: 1 uM
  melting temperature shift: 0.11 °C

## PITRM1 (UniProt Q5JRX3)
MBE1 concentration: 100 nM
  melting temperature shift: 1.2 °C
MBE1 concentration: 1 uM
  melting temperature shift: -0.0244 °C

## UniProt Q5BKX5
MBE1 concentration: 100 nM
  melting temperature shift: 0.989 °C
MBE1 concentration: 1 uM
  melting temperature shift: -0.338 °C

## CC2D1A (UniProt Q6P1N0)
MBE1 concentration: 100 nM
  melting temperature shift: -0.219 °C
MBE1 concentration: 1 uM
  melting temperature shift: -0.282 °C

## UniProt Q6NXT4
MBE1 concentration: 100 nM
  melting temperature shift: -0.53 °C
MBE1 concentration: 1 uM
  melting temperature shift: 0.563 °C

## EDC4 (UniProt Q6P2E9)
MBE1 concentration: 100 nM
  melting temperature shift: -1.62 °C
MBE1 concentration: 1 uM
  melting temperature shift: -0.795 °C

## UniProt Q6NW34
MBE1 concentration: 100 nM
  melting temperature shift: -0.899 °C
MBE1 concentration: 1 uM
  melting temperature shift: -0.755 °C

## LPCAT3 (UniProt Q6P1A2)
MBE1 concentration: 100 nM
  melting temperature shift: 0.708 °C
MBE1 concentration: 1 uM
  melting temperature shift: 0.47 °C

## MRPL2 (UniProt Q5T653)
MBE1 concentration: 100 nM
  melting temperature shift: 1.27 °C
MBE1 concentration: 1 uM
  melting temperature shift: 1.32 °C

## EMC10 (UniProt Q5UCC4)
MBE1 concentration: 100 nM
  melting temperature shift: -1.02 °C
MBE1 concentration: 1 uM
  melting temperature shift: 0.458 °C

## LYRM7 (UniProt Q5U5X0)
MBE1 concentration: 100 nM
  melting temperature shift: 0.0366 °C
MBE1 concentration: 1 uM
  melting temperature shift: 0.629 °C

## CDC42BPA (UniProt Q5VT25)
MBE1 concentration: 100 nM
  melting temperature shift: 1.03 °C
MBE1 concentration: 1 uM
  melting temperature shift: 0.336 °C

## ZNF326 (UniProt Q5BKZ1)
MBE1 concentration: 100 nM
  melting temperature shift: -0.173 °C
MBE1 concentration: 1 uM
  melting temperature shift: -0.218 °C

## SNAP47 (UniProt Q5SQN1)
MBE1 concentration: 100 nM
  melting temperature shift: -0.311 °C
MBE1 concentration: 1 uM
  melting temperature shift: 0.0513 °C

## RETSAT (UniProt Q6NUM9)
MBE1 concentration: 100 nM
  melting temperature shift: 0.557 °C
MBE1 concentration: 1 uM
  melting temperature shift: 1.03 °C
